± gives the standard deviation of the averaged measurements. The list shows a part of the results, in another mix than the full data.
Compound: Nc1ncnc2c1ncn2[C@@H]1O[C@H](COP(=O)(O)OP(=O)(O)OP(=O)(O)O)[C@@H](O)[C@H]1O [adenosine triphosphate]
Assay: NP40-soluble protein abundance relative to vehicle (solubility fold change) (ratio); higher = more soluble protein in presence of ATP
Outline: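 Values are fold changes against the detergent-processed vehicle, based on vsn-normalised intensities. Jurkat crude lysate was treated at eight concentrations from 0.1 to 10 mM (10 min at room temperature, then 3 min at 37 °C), solubilised with 0.8% NP40 and benzonase, ultracentrifuged and analysed by TMT-labelled LC-MS/MS over three independent experiments.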

Protein sequences, listed by entry. Tags and fused reporters are not part of them. Lines headed by an entry give the natural chain unless they say otherwise; changes in a name come on top.
UniProt Q8WY54: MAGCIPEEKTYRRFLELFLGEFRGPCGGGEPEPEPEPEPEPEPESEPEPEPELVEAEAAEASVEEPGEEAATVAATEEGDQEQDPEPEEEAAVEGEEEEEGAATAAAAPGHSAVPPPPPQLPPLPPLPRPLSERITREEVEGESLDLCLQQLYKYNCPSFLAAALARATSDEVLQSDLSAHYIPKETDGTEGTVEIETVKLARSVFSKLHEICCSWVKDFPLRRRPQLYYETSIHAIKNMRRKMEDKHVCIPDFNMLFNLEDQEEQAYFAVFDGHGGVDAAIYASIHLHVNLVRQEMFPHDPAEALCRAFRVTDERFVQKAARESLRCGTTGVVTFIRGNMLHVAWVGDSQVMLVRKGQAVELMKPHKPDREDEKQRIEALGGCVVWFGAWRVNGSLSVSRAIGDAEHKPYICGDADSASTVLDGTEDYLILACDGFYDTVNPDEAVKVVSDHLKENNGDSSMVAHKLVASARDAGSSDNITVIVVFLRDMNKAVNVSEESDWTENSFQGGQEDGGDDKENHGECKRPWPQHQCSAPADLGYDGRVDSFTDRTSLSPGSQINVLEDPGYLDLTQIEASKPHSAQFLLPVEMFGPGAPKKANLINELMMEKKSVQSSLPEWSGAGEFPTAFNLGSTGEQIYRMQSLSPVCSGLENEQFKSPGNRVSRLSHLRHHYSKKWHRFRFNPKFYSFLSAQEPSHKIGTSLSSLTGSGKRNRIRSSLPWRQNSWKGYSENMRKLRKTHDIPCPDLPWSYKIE
UniProt Q8WUA4: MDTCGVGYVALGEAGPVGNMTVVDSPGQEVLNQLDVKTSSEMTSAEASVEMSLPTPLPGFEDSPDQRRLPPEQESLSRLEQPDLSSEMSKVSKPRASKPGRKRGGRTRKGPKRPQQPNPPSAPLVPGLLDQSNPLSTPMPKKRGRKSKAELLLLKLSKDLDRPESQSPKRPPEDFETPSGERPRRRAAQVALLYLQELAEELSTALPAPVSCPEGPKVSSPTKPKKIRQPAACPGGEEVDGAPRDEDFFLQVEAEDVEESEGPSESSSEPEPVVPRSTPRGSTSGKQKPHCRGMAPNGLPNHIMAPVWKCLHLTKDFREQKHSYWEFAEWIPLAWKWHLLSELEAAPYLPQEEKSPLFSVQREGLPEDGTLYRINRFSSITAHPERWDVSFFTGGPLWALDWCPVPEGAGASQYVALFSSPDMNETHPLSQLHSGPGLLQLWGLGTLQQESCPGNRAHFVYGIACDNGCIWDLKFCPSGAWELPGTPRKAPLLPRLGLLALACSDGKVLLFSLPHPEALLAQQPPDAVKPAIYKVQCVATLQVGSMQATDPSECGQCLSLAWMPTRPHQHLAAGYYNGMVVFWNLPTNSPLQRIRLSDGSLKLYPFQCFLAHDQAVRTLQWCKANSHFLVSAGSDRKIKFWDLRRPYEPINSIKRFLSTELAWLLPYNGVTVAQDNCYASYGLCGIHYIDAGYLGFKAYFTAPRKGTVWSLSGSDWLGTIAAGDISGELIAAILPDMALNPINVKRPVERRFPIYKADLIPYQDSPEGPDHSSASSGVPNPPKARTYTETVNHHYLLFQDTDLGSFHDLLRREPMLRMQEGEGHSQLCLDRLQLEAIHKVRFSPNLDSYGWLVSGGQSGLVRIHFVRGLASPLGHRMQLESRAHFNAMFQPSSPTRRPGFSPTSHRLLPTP
UniProt Q92989: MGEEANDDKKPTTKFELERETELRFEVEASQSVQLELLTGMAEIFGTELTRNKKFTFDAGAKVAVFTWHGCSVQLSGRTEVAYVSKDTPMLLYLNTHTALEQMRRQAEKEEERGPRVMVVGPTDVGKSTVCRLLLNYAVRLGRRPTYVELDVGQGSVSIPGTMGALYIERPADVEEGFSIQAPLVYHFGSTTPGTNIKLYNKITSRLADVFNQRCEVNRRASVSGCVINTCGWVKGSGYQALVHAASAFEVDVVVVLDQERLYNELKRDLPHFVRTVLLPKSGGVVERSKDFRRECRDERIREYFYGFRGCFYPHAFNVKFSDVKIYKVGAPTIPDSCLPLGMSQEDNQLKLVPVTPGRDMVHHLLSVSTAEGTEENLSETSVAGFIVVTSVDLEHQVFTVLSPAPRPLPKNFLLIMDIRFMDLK
UniProt Q92567: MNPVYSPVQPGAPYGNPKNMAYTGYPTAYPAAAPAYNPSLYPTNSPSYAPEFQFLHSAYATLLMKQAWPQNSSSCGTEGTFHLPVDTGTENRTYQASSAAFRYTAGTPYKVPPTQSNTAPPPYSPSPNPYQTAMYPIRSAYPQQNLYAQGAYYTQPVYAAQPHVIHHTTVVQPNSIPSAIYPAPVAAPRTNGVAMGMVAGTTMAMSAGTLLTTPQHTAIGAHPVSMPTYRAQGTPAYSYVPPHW
UniProt Q92890: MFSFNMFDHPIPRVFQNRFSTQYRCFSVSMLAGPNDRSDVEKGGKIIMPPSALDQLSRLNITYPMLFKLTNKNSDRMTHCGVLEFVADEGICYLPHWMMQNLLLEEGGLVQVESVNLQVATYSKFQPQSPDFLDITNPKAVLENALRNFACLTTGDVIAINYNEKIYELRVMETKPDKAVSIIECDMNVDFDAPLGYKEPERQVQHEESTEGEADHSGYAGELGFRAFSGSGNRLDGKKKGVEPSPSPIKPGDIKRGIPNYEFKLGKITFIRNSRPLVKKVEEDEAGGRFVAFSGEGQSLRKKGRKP
UniProt Q92785, whole entry: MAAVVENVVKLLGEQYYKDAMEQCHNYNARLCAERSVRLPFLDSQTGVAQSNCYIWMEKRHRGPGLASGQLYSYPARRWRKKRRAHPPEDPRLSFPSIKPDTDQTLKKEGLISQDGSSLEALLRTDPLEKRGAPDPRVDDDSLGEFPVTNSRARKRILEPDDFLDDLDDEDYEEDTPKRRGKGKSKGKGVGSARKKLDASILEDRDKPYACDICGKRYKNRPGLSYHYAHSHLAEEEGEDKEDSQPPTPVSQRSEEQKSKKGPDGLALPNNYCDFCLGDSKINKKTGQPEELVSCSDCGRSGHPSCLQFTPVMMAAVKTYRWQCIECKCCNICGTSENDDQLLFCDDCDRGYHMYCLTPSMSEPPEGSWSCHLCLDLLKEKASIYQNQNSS
UniProt Q8WZA0: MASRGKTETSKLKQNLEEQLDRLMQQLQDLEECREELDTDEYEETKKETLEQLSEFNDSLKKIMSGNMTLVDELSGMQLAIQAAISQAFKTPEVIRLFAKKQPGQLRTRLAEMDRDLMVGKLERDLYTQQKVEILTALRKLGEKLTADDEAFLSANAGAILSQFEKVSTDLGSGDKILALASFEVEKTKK
UniProt Q8WZ82: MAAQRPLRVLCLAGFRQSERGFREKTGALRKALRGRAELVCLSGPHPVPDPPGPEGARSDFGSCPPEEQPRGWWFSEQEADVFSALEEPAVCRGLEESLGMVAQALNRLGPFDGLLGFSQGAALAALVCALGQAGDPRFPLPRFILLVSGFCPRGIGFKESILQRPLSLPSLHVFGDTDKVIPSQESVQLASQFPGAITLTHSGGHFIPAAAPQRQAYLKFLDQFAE
UniProt Q92600, whole entry: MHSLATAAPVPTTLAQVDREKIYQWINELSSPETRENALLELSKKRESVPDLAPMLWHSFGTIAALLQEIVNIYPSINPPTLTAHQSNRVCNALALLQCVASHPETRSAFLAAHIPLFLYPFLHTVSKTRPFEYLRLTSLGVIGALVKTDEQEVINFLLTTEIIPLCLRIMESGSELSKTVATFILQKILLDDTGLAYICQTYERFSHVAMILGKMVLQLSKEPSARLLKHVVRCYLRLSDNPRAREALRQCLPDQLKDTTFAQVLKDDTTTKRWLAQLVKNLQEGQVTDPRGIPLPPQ
UniProt Q969E8: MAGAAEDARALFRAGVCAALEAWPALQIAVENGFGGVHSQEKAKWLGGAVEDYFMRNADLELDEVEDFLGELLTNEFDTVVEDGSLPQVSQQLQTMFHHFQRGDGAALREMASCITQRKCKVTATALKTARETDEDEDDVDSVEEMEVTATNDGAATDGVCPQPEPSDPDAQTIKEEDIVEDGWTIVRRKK

Q: What does the source list for UniProt Q8WY54 and related entries?
A: NP40-soluble protein abundance (concentration: 1mM): 0.972 ± 0.036; NP40-soluble protein abundance (concentration: 2mM): 0.9 ± 0.14; NP40-soluble protein abundance (concentration: 4mM): 0.941 ± 0.091; NP40-soluble protein abundance (concentration: 6mM): 0.934 ± 0.064; NP40-soluble protein abundance (concentration: 8mM): 0.928 ± 0.037; NP40-soluble protein abundance (concentration: 10mM): 0.899 ± 0.056

Q: How did the NP40-soluble protein abundance (concentration: 1mM) turn out when GTF3C2 (UniProt Q8WUA4) was run?
A: 1.05 ± 0.017

Q: What about the NP40-soluble protein abundance (concentration: 2mM) of the same target?
A: 1.04 ± 0.078

Q: What about the NP40-soluble protein abundance (concentration: 4mM) of the same target?
A: 1.05 ± 0.04

Q: What about the NP40-soluble protein abundance (concentration: 6mM) of the same target?
A: 1.03 ± 0.084

Q: What about the NP40-soluble protein abundance (concentration: 8mM) of the same target?
A: 1.06 ± 0.044

Q: And the NP40-soluble protein abundance (concentration: 10mM)?
A: 1.07 ± 0.14

Q: Which NP40-soluble protein abundance (concentration: 1mM) does the source give for UniProt Q92989 and related entries here?
A: 1.06 ± 0.15

Q: What about the NP40-soluble protein abundance (concentration: 2mM) of the same target?
A: 1.08 ± 0.13

Q: What about the NP40-soluble protein abundance (concentration: 4mM) of the same target?
A: 1.08 ± 0.094

Q: What about the NP40-soluble protein abundance (concentration: 6mM) of the same target?
A: 0.97 ± 0.13

Q: What about the NP40-soluble protein abundance (concentration: 8mM) of the same target?
A: 1.1 ± 0.056

Q: And the NP40-soluble protein abundance (concentration: 10mM)?
A: 1.15 ± 0.13

Q: With UniProt Q92567 and related entries as the target, how does the NP40-soluble protein abundance (concentration: 1mM) read?
A: 0.794 ± 0.016

Q: And the NP40-soluble protein abundance (concentration: 2mM)?
A: 0.927 ± 0.11

Q: And the NP40-soluble protein abundance (concentration: 4mM)?
A: 0.78 ± 0.029

Q: What about the NP40-soluble protein abundance (concentration: 6mM) of the same target?
A: 0.882 ± 0.12

Q: What about the NP40-soluble protein abundance (concentration: 8mM) of the same target?
A: 0.733 ± 0.044

Q: And the NP40-soluble protein abundance (concentration: 10mM)?
A: 0.828 ± 0.086

Q: Which results are given for UniProt Q92890 and related entries?
A: NP40-soluble protein abundance (concentration: 1mM): 0.962 ± 0.022; NP40-soluble protein abundance (concentration: 2mM): 0.95 ± 0.015; NP40-soluble protein abundance (concentration: 4mM): 0.913 ± 0.019; NP40-soluble protein abundance (concentration: 6mM): 0.934 ± 0.029; NP40-soluble protein abundance (concentration: 8mM): 0.943 ± 0.036; NP40-soluble protein abundance (concentration: 10mM): 0.921 ± 0.027

Q: How did the NP40-soluble protein abundance (concentration: 1mM) turn out when DPF2 (UniProt Q92785) was run?
A: 0.999 ± 0.024

Q: What about the NP40-soluble protein abundance (concentration: 2mM) of the same target?
A: 0.978 ± 0.033

Q: What about the NP40-soluble protein abundance (concentration: 4mM) of the same target?
A: 0.979 ± 0.02

Q: What about the NP40-soluble protein abundance (concentration: 6mM) of the same target?
A: 0.997 ± 0.084

Q: And the NP40-soluble protein abundance (concentration: 8mM)?
A: 1.01 ± 0.04

Q: What about the NP40-soluble protein abundance (concentration: 10mM) of the same target?
A: 1.01 ± 0.05

Q: Which results are given for UniProt Q8WZA0 and related entries?
A: NP40-soluble protein abundance (concentration: 1mM): 0.92 ± 0.059; NP40-soluble protein abundance (concentration: 2mM): 0.915 ± 0.059; NP40-soluble protein abundance (concentration: 4mM): 0.925 ± 0.096; NP40-soluble protein abundance (concentration: 6mM): 0.908 ± 0.025; NP40-soluble protein abundance (concentration: 8mM): 0.906 ± 0.074; NP40-soluble protein abundance (concentration: 10mM): 0.818 ± 0.11

Q: For DTX3L (UniProt Q8TDB6), which NP40-soluble protein abundance (concentration: 1mM) is on record?
A: 1.07 ± 0.037

Q: And the NP40-soluble protein abundance (concentration: 2mM)?
A: 1.09 ± 0.015

Q: And the NP40-soluble protein abundance (concentration: 4mM)?
A: 1.113 ± 0.011

Q: And the NP40-soluble protein abundance (concentration: 6mM)?
A: 1.13 ± 0.049

Q: What about the NP40-soluble protein abundance (concentration: 8mM) of the same target?
A: 1.14 ± 0.02

Q: What about the NP40-soluble protein abundance (concentration: 10mM) of the same target?
A: 1.16 ± 0.051

Q: For OVCA2 (UniProt Q8WZ82), which NP40-soluble protein abundance (concentration: 1mM) is on record?
A: 1.07 ± 0.15

Q: What about the NP40-soluble protein abundance (concentration: 2mM) of the same target?
A: 1.05 ± 0.16

Q: And the NP40-soluble protein abundance (concentration: 4mM)?
A: 0.966 ± 0.16

Q: And the NP40-soluble protein abundance (concentration: 6mM)?
A: 1.06 ± 0.17

Q: And the NP40-soluble protein abundance (concentration: 8mM)?
A: 0.994 ± 0.3

Q: And the NP40-soluble protein abundance (concentration: 10mM)?
A: 1.02 ± 0.31

Q: What does the source list for UniProt Q92600 and related entries?
A: NP40-soluble protein abundance (concentration: 1mM): 1.07 ± 0.12; NP40-soluble protein abundance (concentration: 2mM): 1.12 ± 0.064; NP40-soluble protein abundance (concentration: 4mM): 1.35 ± 0.065; NP40-soluble protein abundance (concentration: 6mM): 1.4 ± 0.3; NP40-soluble protein abundance (concentration: 8mM): 1.44 ± 0.065; NP40-soluble protein abundance (concentration: 10mM): 1.24 ± 0.26

Q: TSR2 (UniProt Q969E8) was tested. Which NP40-soluble protein abundance (concentration: 1mM) did it give?
A: 0.967 ± 0.037

Q: What about the NP40-soluble protein abundance (concentration: 2mM) of the same target?
A: 0.987 ± 0.035

Q: What about the NP40-soluble protein abundance (concentration: 4mM) of the same target?
A: 1.06 ± 0.018

Q: What about the NP40-soluble protein abundance (concentration: 6mM) of the same target?
A: 1.17 ± 0.03

Q: What about the NP40-soluble protein abundance (concentration: 8mM) of the same target?
A: 1.13 ± 0.019

Q: What about the NP40-soluble protein abundance (concentration: 10mM) of the same target?
A: 1.08 ± 0.14

Source: the supplement of paper PMC6411743
